Measurements: the supplement of paper PMC6078165
The reference is the same well before dosing, and untreated signal decays as well.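 Fibroblast labels name human fibroblasts: mostly primary ones from tissues such as uterus (C12385, HUF), lung (H6013), bone (Hs27A), adrenal (HADF) and skin (WS1), plus mammary HMF and breast cancer-associated Hs343T. The cancer cells are basal-like or mesenchymal-like triple-negative breast cancer lines. The paper calls a changed response a hit when it shifts by more than 3x the replicate standard deviation. The tissue of the other fibroblasts is not given here.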

Tested on: MDAMB436
Experiment: relative JC-1 red fluorescence (viability) vs pre-drug, coculture with fibroblast (fraction); higher = more viable cancer cells
Method: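 JC-1 labelled TNBC cells cocultured 1:1 (1,500 cells each) with CellTrace Violet stained primary or stromal fibroblasts in 384-well plates in FluoroBrite medium, treated with one of 42 anticancer drugs at 0.1, 1, 10 or 100 uM. JC-1 red fluorescence (mitochondrial integrity in cancer cells only) was read by plate reader every 8 h for 72 h. Values are normalised to each well's pre-drug value. The stock of one drug was tenfold lower, so its dose labels may be too high.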

CCN(CC)CCNC(=O)c1c(C)[nH]c(/C=C2\C(=O)Nc3ccc(F)cc32)c1C [Sunitinib]
relative JC-1 red fluorescence
Conditions | 8 h | 16 h | 24 h | 32 h | 40 h | 48 h | 56 h | 64 h | 72 h
0.1 µM, coculture fibroblast: C12385 | 0.752 | 0.7136 | 0.679 | 0.6059 | 0.5629 | 0.548 | 0.539 | 0.532 | 0.536
0.1 µM, coculture fibroblast: H6013 | 0.81 | 0.783 | 0.771 | 0.766 | 0.758 | 0.788 | 0.755 | 0.734 | 0.701
0.1 µM, coculture fibroblast: H6019 | 0.737 | 0.7 | 0.682 | 0.609 | 0.567 | 0.549 | 0.522 | 0.488 | 0.467
0.1 µM, coculture fibroblast: H6076 | 0.753 | 0.697 | 0.701 | 0.66 | 0.663 | 0.638 | 0.652 | 0.649 | 0.639
0.1 µM, coculture fibroblast: H6231 | 0.755 | 0.704 | 0.731 | 0.641 | 0.625 | 0.592 | 0.5877 | 0.571 | 0.551
0.1 µM, coculture fibroblast: HADF | 0.7814 | 0.785 | 0.767 | 0.735 | 0.735 | 0.783 | 0.727 | 0.737 | 0.701
0.1 µM, coculture fibroblast: HCFa | 0.7918 | 0.765 | 0.735 | 0.716 | 0.701 | 0.725 | 0.667 | 0.656 | 0.609
0.1 µM, coculture fibroblast: HCPF | 0.795 | 0.758 | 0.767 | 0.703 | 0.692 | 0.661 | 0.646 | 0.63 | 0.616
0.1 µM, coculture fibroblast: HHSteC | 0.807 | 0.788 | 0.774 | 0.735 | 0.738 | 0.75 | 0.7 | 0.684 | 0.628
0.1 µM, coculture fibroblast: HMF | 0.756 | 0.712 | 0.696 | 0.656 | 0.645 | 0.623 | 0.626 | 0.605 | 0.602
0.1 µM, coculture fibroblast: HPFa | 0.854 | 0.8137 | 0.781 | 0.743 | 0.741 | 0.748 | 0.68 | 0.663 | 0.589
0.1 µM, coculture fibroblast: HUF | 0.81 | 0.745 | 0.732 | 0.658 | 0.607 | 0.586 | 0.568 | 0.563 | 0.551
0.1 µM, coculture fibroblast: Hs5 | 0.76 | 0.734 | 0.732 | 0.691 | 0.688 | 0.654 | 0.663 | 0.633 | 0.625
0.1 µM, coculture fibroblast: Hs27A | 0.817 | 0.793 | 0.787 | 0.764 | 0.748 | 0.812 | 0.722 | 0.705 | 0.628
0.1 µM, coculture fibroblast: Hs343T | 0.721 | 0.68 | 0.666 | 0.621 | 0.6 | 0.576 | 0.576 | 0.561 | 0.558
0.1 µM, coculture fibroblast: WS1 | 0.737 | 0.703 | 0.688 | 0.612 | 0.586 | 0.57 | 0.555 | 0.537 | 0.537
1 µM, coculture fibroblast: C12385 | 0.791 | 0.714 | 0.684 | 0.601 | 0.554 | 0.528 | 0.501 | 0.478 | 0.467
1 µM, coculture fibroblast: H6013 | 0.8435 | 0.863 | 0.884 | 0.917 | 0.809 | 0.904 | 0.816 | 0.84 | 0.924
1 µM, coculture fibroblast: H6019 | 0.79 | 0.779 | 0.799 | 0.737 | 0.723 | 0.703 | 0.672 | 0.635 | 0.607
1 µM, coculture fibroblast: H6076 | 0.852 | 0.811 | 0.836 | 0.803 | 0.792 | 0.771 | 0.774 | 0.768 | 0.746
1 µM, coculture fibroblast: H6231 | 0.809 | 0.746 | 0.7658 | 0.681 | 0.661 | 0.6193 | 0.611 | 0.59 | 0.565
1 µM, coculture fibroblast: HADF | 0.829 | 0.782 | 0.755 | 0.731 | 0.725 | 0.758 | 0.699 | 0.697 | 0.657
1 µM, coculture fibroblast: HCFa | 0.784 | 0.7754 | 0.743 | 0.714 | 0.693 | 0.716 | 0.646 | 0.637 | 0.58
1 µM, coculture fibroblast: HCPF | 0.823 | 0.778 | 0.778 | 0.716 | 0.695 | 0.661 | 0.643 | 0.618 | 0.59
1 µM, coculture fibroblast: HHSteC | 0.819 | 0.792 | 0.759 | 0.729 | 0.717 | 0.73 | 0.667 | 0.652 | 0.591
1 µM, coculture fibroblast: HMF | 0.804 | 0.765 | 0.772 | 0.715 | 0.692 | 0.654 | 0.658 | 0.64 | 0.621
1 µM, coculture fibroblast: HPFa | 0.865 | 0.802 | 0.775 | 0.734 | 0.724 | 0.729 | 0.663 | 0.642 | 0.58
1 µM, coculture fibroblast: HUF | 0.831 | 0.7376 | 0.71422 | 0.6369 | 0.582 | 0.5521 | 0.517 | 0.5 | 0.489
1 µM, coculture fibroblast: Hs5 | 0.811 | 0.773 | 0.777 | 0.723 | 0.711 | 0.671 | 0.668 | 0.636 | 0.615
1 µM, coculture fibroblast: Hs27A | 0.881 | 0.796 | 0.776 | 0.753 | 0.731 | 0.79 | 0.696 | 0.689 | 0.621
1 µM, coculture fibroblast: Hs343T | 0.808 | 0.773 | 0.768 | 0.727 | 0.71 | 0.676 | 0.664 | 0.654 | 0.642
1 µM, coculture fibroblast: WS1 | 0.742 | 0.693 | 0.675 | 0.6031 | 0.5689 | 0.556 | 0.532 | 0.514 | 0.507
